Measurements reported in the supplement of paper PMC7125110.
± gives the standard error. Many of these values have a large error.

B1: glmS ribozyme (parent)
chain: AUAAAAGCGCCAGAACUACAGAAAUGUAGUUGACGAGGAGGAGGUUUAUCGAAUUUUCGGCGGAUGCCUCCAAA

Variants of: B1
Assay: self-cleavage kobs at 2500 uM GlcN6P; higher = faster cleavage; RNA array
Conditions: with glucosamine-6-phosphate
Procedure, shortened: (§1)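 Glucosamine-6-phosphate, from 40 μM to 10 mM in HEPES/KCl/Mg(OAc)2 buffer, was flowed over sequenced MiSeq chips carrying barcoded ribozyme variants transcribed in situ by E. coli RNA polymerase. A hybridised Cy3 probe tracked the variants at 37 °C as tiles were imaged over ~14 h. kobs, kcat and KM were obtained by fitting normalised per-tile medians to exponential decays and then applying weighted Michaelis–Menten fits across concentrations.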

Row | Variant | self-cleavage kobs at 2500 uM GlcN6P [s⁻¹]
1 | A14G U45A A48U | 0.00158 ± 0.0008
2 | A14U C50A | 2.4e-05 ± 1.6e-05
3 | A14U G62A C70G | 6.04e-05 ± 3.1e-05
4 | A14U G66C C68U | 3.95e-05 ± 2.3e-05
5 | A15C A42U | 2.05e-05 ± 1.1e-05
6 | A15G A42G | 0.0672 ± 0.06
7 | A15G A42U C70G | 3.43e-05 ± 1.7e-05
8 | A15G G37U C58A C70A | 4.64e-05 ± 2.6e-05
9 | A15U A42U U54A | 3.02e-05 ± 2.3e-05
10 | A15U C16U C61G C70G | 2.95e-05 ± 2.8e-05
11 | A15U C67A C68A | 2.77e-05 ± 2e-05
12 | A15U U57G | 3.29e-05 ± 2.4e-05
13 | C16A C58U | 2.1e-05 ± 2.1e-05
14 | C16A C67G C68G C70U | 3.55e-05 ± 2.2e-05
15 | C16A C68A | 2.23e-05 ± 1.6e-05
16 | C16A G32A C70G | 3.81e-05 ± 2.2e-05
17 | C16A G41A | 3.02e-05 ± 1.7e-05
18 | C16A G66U C68A | 4.29e-05 ± 3.2e-05
19 | C16A U47G C58A | 3.29e-05 ± 1.7e-05
20 | C16G G41C | 2.94e-05 ± 1.5e-05
21 | C16G G44A | 3.51e-05 ± 2.6e-05
22 | C16G U45A C67G | 3.82e-05 ± 2.2e-05
23 | C16G U56C C58U | 4.25e-05 ± 2.3e-05

Row | Variant | self-cleavage kobs at 2500 uM GlcN6P [s⁻¹]
24 | C16U A36U G37U C50U C71A | 3.82e-05 ± 2.3e-05
25 | C16U A39G U55C | 0.027 ± 0.015
26 | C16U A52C | 2.06e-05 ± 1.9e-05
27 | C16U G32U U69A | 4.12e-05 ± 3.1e-05
28 | C19A A42G | 0.0159 ± 0.012
29 | A20U | 0.0125 ± 0.011
30 | A23C A52G U69A | 6.5e-05 ± 3.8e-05
31 | G29A G60U G66A | 0.00143 ± 0.0014
32 | G29C G37C C68G | 5.02e-05 ± 2.7e-05
33 | G29C G66U C68U | 2.91e-05 ± 1.6e-05
34 | G29U C61A C70A | 2.82e-05 ± 2.5e-05
35 | G29U U31C C50G C61U | 5.3e-05 ± 3.1e-05
36 | U30A G32U U56C | 2.96e-05 ± 2.2e-05
37 | U30C C58U C68U | 3.72e-05 ± 2.1e-05
38 | U30C G37A | 2.09e-05 ± 1.8e-05
39 | U30C G37A C70G | 2.25e-05 ± 2.2e-05
40 | U30G A33U | 4.34e-05 ± 2.3e-05
41 | U30G A48U U54A | 2.52e-05 ± 2.3e-05
42 | U30G C50U C68G | 4.07e-05 ± 2.7e-05
43 | U31A A33U U55G | 3.44e-05 ± 2.4e-05
44 | U31A G59A A64G | 2.32e-05 ± 1.7e-05
45 | U31A U47G A48G | 2.13e-05 ± 1.5e-05
46 | U31C A39C U47C U56C | 2.85e-05 ± 1.6e-05

Row | Variant | self-cleavage kobs at 2500 uM GlcN6P [s⁻¹]
47 | U31C A42U | 2.5e-05 ± 1.7e-05
48 | U31C A52G C68G U69A | 5.46e-05 ± 3.4e-05
49 | U31C C68G | 1.68e-05 ± 1.6e-05
50 | U31C G59U C68A | 3.57e-05 ± 2.2e-05
51 | U31G A39U A64C C70U | 3.55e-05 ± 2.2e-05
52 | U31G G63U C71A | 2.87e-05 ± 2.7e-05
53 | U31G U47G A48G | 2.66e-05 ± 2e-05
54 | G32A U57G U69G | 6.38e-05 ± 4.4e-05
55 | G32C A39U | 1.48e-05 ± 1.1e-05
56 | G32C U54A | 1.97e-05 ± 1.5e-05
57 | G32U A39C U54A | 3.06e-05 ± 2.8e-05
58 | G32U A53U G63A C68G | 0.00174 ± 0.0015
59 | G32U U57C | 2.15e-05 ± 1.2e-05
60 | A33C U56G A64G G66A | 3.21e-05 ± 2.3e-05
61 | C34G C58U A64C C67G | 3.03e-05 ± 2.2e-05
62 | C34U C50G A52G G60A | 3.29e-05 ± 3.2e-05
63 | C34U C61A C67G | 2.26e-05 ± 2e-05
64 | G35A C50G G59C U65G | 0.00046 ± 0.00039
65 | A36C U49G C61U | 0.000179 ± 9.7e-05
66 | A36G A53G | 1.57e-05 ± 1.4e-05
67 | A36U | < 1e-05
68 | A36U C70G | 0.000271 ± 0.0002
69 | A36U U65C C70G | 3.21e-05 ± 2.7e-05

A different layout for part of the listing above:
Row	Variant	self-cleavage kobs at 2500 uM GlcN6P [s⁻¹]
44	U31A G59A A64G	2.32e-05 ± 1.7e-05
45	U31A U47G A48G	2.13e-05 ± 1.5e-05
46	U31C A39C U47C U56C	2.85e-05 ± 1.6e-05
47	U31C A42U	2.5e-05 ± 1.7e-05
48	U31C A52G C68G U69A	5.46e-05 ± 3.4e-05
49	U31C C68G	1.68e-05 ± 1.6e-05
50	U31C G59U C68A	3.57e-05 ± 2.2e-05

Further entries.

Row | Variant | self-cleavage kobs at 2500 uM GlcN6P [s⁻¹]
70 | G37C C68U U69G | 3.29e-05 ± 2.6e-05
71 | G37C U47G C70G | 3.19e-05 ± 1.9e-05
72 | G37C U54G U55G | 3.17e-05 ± 3.1e-05
73 | G37U C71G | 1.99e-05 ± 1.4e-05
74 | G38U A64U C70G | 4.9e-05 ± 2.9e-05
75 | G38U C70U | 1.58e-05 ± 1.5e-05
76 | A39C C67A C70U | 3.65e-05 ± 1.8e-05
77 | A39C U55G | 0.0038 ± 0.0021
78 | A39C U55G C58A | 2.79e-05 ± 2.3e-05
79 | A39G G66U C68A | 3.29e-05 ± 2.1e-05
80 | A39G U46G | 0.00469 ± 0.0026
81 | G40U A53C U65C G66A | 2.77e-05 ± 2.5e-05
82 | G41A U46G C70U | 0.00383 ± 0.0025
83 | G41U U65C | 2.03e-05 ± 1e-05
84 | A42U U65G C68A | 3.9e-05 ± 2.4e-05
85 | G43A U45G A48G G66A | 4.66e-05 ± 3.2e-05
86 | G44A A64G | 1.67e-05 ± 1.6e-05
87 | G44A U65G | 2.79e-05 ± 1.9e-05
88 | G44U C68U | 1.85e-05 ± 1.1e-05
89 | U45A A52U U65G | 2.97e-05 ± 2.5e-05
90 | U45C C67U C68A | 3.85e-05 ± 2.5e-05
91 | U46A G66U C67G | 4.18e-05 ± 2.9e-05
92 | U46C U57A | 2.74e-05 ± 1.5e-05

Row | Variant | self-cleavage kobs at 2500 uM GlcN6P [s⁻¹]
93 | U46G C67A C70G | 4.52e-05 ± 2.9e-05
94 | U47A U57G C68U | 2.47e-05 ± 2.4e-05
95 | U47C G66U C67G | 1.99e-05 ± 1.6e-05
96 | U47G G63U C68G | 3.48e-05 ± 2.7e-05
97 | U47G U49G | 0.000114 ± 5.9e-05
98 | A48G C50G C61U | 4.61e-05 ± 3.5e-05
99 | A48U G59C G66C C71A | 2.6e-05 ± 2.6e-05
100 | U49G G63C C70A | 3.01e-05 ± 2.2e-05
101 | C50A G60A C67A | 2.77e-05 ± 2.2e-05
102 | C50G A52U C70U | 2.66e-05 ± 2e-05
103 | C50G A53U C68G | 0.000261 ± 0.00013
104 | C50G G63A A64U | 4.44e-05 ± 2.5e-05
105 | C50U G51U C68A C71A | 3.37e-05 ± 2.2e-05
106 | C50U G63U C67U C68U C70G | 3.69e-05 ± 2.8e-05
107 | C50U U56A C70U | 4.19e-05 ± 2.6e-05
108 | G51A A52G G66A C70G | 4.24e-05 ± 2.6e-05
109 | A52C A64G | 2.32e-05 ± 1.9e-05
110 | A52C C67G | 2.67e-05 ± 1.5e-05
111 | A52G A53C U54A | 3.08e-05 ± 2.2e-05
112 | A52U C67A C70A | 3.93e-05 ± 2.6e-05
113 | A52U C68A | 2.8e-05 ± 1.6e-05
114 | A53C U54G A64C | 2.46e-05 ± 2.1e-05
115 | A53C U56G U69A | 5.02e-05 ± 2.6e-05

Variants of: B1
Assay: self-cleavage kobs at 10000 uM GlcN6P; higher = faster cleavage; RNA array
Conditions: with glucosamine-6-phosphate
Procedure, shortened: as §1

Row | Variant | self-cleavage kobs at 10000 uM GlcN6P [s⁻¹]
116 | A15C A42U | 1.14e-05 ± 1.1e-05
117 | A15G A42G | 0.0893 ± 0.049
118 | C16G G41C | 2.07e-05 ± 1.7e-05
119 | C16G G44A | 2.55e-05 ± 1.6e-05
120 | C16G U56C C58U | 1.92e-05 ± 1.4e-05
121 | C19A A42G | 0.00879 ± 0.0049
122 | A20U | 0.123 ± 0.11
123 | U30G A33U | 1.89e-05 ± 1.7e-05
124 | U31A A33U U55G | 2.46e-05 ± 1.4e-05
125 | U31C A42U | 1.4e-05 ± 8.3e-06
126 | G32U A39C U54A | 3.42e-05 ± 2e-05
127 | A36U C70G | 0.000344 ± 0.00024
128 | G44A U65G | 2.39e-05 ± 1.8e-05
129 | U45C C67U C68A | 3.62e-05 ± 1.9e-05
130 | C50A G60A C67A | 1.72e-05 ± 1.7e-05
131 | C50G A52U C70U | 3.03e-05 ± 1.9e-05
132 | A52G A53C U54A | 2e-05 ± 1.8e-05
